From patent US12491217B2, “Compositions and methods for promoting healthy neural development in an unborn baby” (The Regents of the University of California, priority 2019, dated 2025) come the findings set out here.

This data set is described as follows: Metabolomics of fetal brain at E14.5. The format is in vivo, C57Bl/6J mice. The note with it: metabolite level in E14.5 fetal brain; for fold of change ABX/SPF: ANOVA contrast ABX/SPF; for fold of change GF/ABX: ANOVA contrast GF/ABX; for fold of change GF/SPF: ANOVA contrast GF/SPF; for fold of change GF/Sp: ANOVA contrast GF/Sp; for fold of change Sp/ABX: ANOVA contrast Sp/ABX; for fold of change Sp/SPF: ANOVA contrast Sp/SPF.

Take `OC[C@H]1OC(O)[C@H](O)[C@@H](O)[C@@H]1O` (stereo partly drawn) [compound 958]: the “fold of change ABX/SPF” value was determined as 0.58, the “fold of change GF/ABX” value is 5.42, the “fold of change GF/SPF” value is recorded as 3.16 and the “fold of change GF/Sp” value came out at 4.51. Moreover, the “fold of change Sp/ABX” value is recorded as 1.20 and the “fold of change Sp/SPF” value worked out at 0.70.

In the case of `O=C[C@H](O)[C@@H](O)[C@H](O)[C@H](O)COP(=O)(O)O` [compound 959], the “fold of change ABX/SPF” value was 0.55, the “fold of change GF/ABX” value is listed as 1.34, the “fold of change GF/SPF” value was 0.74 and the “fold of change GF/Sp” value was 0.95. In addition, the “fold of change Sp/ABX” value is 1.41 and the “fold of change Sp/SPF” value worked out at 0.77.

With `O=C(CO)COP(=O)(O)O` [compound 967], the “fold of change ABX/SPF” value was 0.70, the “fold of change GF/ABX” value came out at 0.99, the “fold of change GF/SPF” value amounted to 0.69 and the “fold of change GF/Sp” value is reported as 0.93. Further, the “fold of change Sp/ABX” value was 1.07 and the “fold of change Sp/SPF” value worked out at 0.74.

`O=C(O)C(O)COP(=O)(O)O` (stereo not drawn) [compound 972]: the “fold of change ABX/SPF” value came out at 0.85, the “fold of change GF/ABX” value stood at 1.26, the “fold of change GF/SPF” value is reported as 1.07 and the “fold of change GF/Sp” value stood at 1.08. Further, the “fold of change Sp/ABX” value is listed as 1.17 and the “fold of change Sp/SPF” value is reported as 0.99.

Consider `C=C(OP(=O)(O)O)C(=O)O` [compound 973], for which the “fold of change ABX/SPF” value is listed as 0.87, the “fold of change GF/ABX” value amounted to 1.32, the “fold of change GF/SPF” value came to 1.14 and the “fold of change GF/Sp” value is 1.15. For the same compound, the “fold of change Sp/ABX” value is listed as 1.15 and the “fold of change Sp/SPF” value amounted to 0.99.

On to `CC(=O)C(=O)O` [compound 974], for which the “fold of change ABX/SPF” value turned out to be 0.76, the “fold of change GF/ABX” value turned out to be 1.15, the “fold of change GF/SPF” value was 0.87 and the “fold of change GF/Sp” value is 1.06. Moreover, the “fold of change Sp/ABX” value turned out to be 1.08 and the “fold of change Sp/SPF” value is 0.82.

Consider `CC(O)C(=O)O` (stereo not drawn) [compound 975], for which the “fold of change ABX/SPF” value is listed as 0.73, the “fold of change GF/ABX” value amounted to 1.07, the “fold of change GF/SPF” value is reported as 0.78 and the “fold of change GF/Sp” value came to 1.02. The “fold of change Sp/ABX” value is 1.05 and the “fold of change Sp/SPF” value was determined as 0.77.

For the compound `O=C(O)C(O)CO` (stereo not drawn) [compound 978], the “fold of change ABX/SPF” value was 0.61, the “fold of change GF/ABX” value is 1.87, the “fold of change GF/SPF” value came to 1.14 and the “fold of change GF/Sp” value worked out at 1.03. Also, the “fold of change Sp/ABX” value is on record as 1.81 and the “fold of change Sp/SPF” value is given as 1.10.

As to `O=C(O)[C@H](O)[C@@H](O)[C@H](O)[C@H](O)COP(=O)(O)O` [compound 981], the “fold of change ABX/SPF” value is recorded as 0.60, the “fold of change GF/ABX” value is given as 1.87, the “fold of change GF/SPF” value was 1.12 and the “fold of change GF/Sp” value is listed as 0.66. Further, the “fold of change Sp/ABX” value is 2.81 and the “fold of change Sp/SPF” value came to 1.68.

Take `O=C(CO)[C@H](O)[C@H](O)COP(=O)(O)O` [compound 982]: the “fold of change ABX/SPF” value turned out to be 0.47, the “fold of change GF/ABX” value was found to be 1.66, the “fold of change GF/SPF” value was 0.79 and the “fold of change GF/Sp” value is 0.99. Moreover, the “fold of change Sp/ABX” value was 1.69 and the “fold of change Sp/SPF” value was found to be 0.80.

Turning to `O=C[C@H](O)[C@H](O)[C@H](O)COP(=O)(O)O` [compound 983], the “fold of change ABX/SPF” value is listed as 1.23, the “fold of change GF/ABX” value came to 0.99, the “fold of change GF/SPF” value is 1.22 and the “fold of change GF/Sp” value is 0.98. Further, the “fold of change Sp/ABX” value is 1.00 and the “fold of change Sp/SPF” value is given as 1.24.

As for `O=P(O)(O)OC1OC(CO)C(O)C1O` (stereo not drawn) [compound 984], the “fold of change ABX/SPF” value was 1.12, the “fold of change GF/ABX” value was determined as 1.00, the “fold of change GF/SPF” value was 1.12 and the “fold of change GF/Sp” value was found to be 0.99. Also, the “fold of change Sp/ABX” value amounted to 1.01 and the “fold of change Sp/SPF” value turned out to be 1.13.

As to `O=C(CO)[C@@H](O)[C@H](O)[C@H](O)[C@H](O)COP(=O)(O)O` [compound 986], the “fold of change ABX/SPF” value is 0.68, the “fold of change GF/ABX” value is 1.12, the “fold of change GF/SPF” value is listed as 0.76 and the “fold of change GF/Sp” value turned out to be 0.95. The “fold of change Sp/ABX” value was determined as 1.17 and the “fold of change Sp/SPF” value is recorded as 0.80.

With `O=C[C@H](O)[C@H](O)[C@H](O)CO` [compound 993], the “fold of change ABX/SPF” value is 0.94, the “fold of change GF/ABX” value was 0.93, the “fold of change GF/SPF” value is recorded as 0.87 and the “fold of change GF/Sp” value is 1.19. Besides, the “fold of change Sp/ABX” value was found to be 0.78 and the “fold of change Sp/SPF” value worked out at 0.73.

Consider `OC[C@@H](O)[C@@H](O)[C@@H](O)CO` [compound 994], for which the “fold of change ABX/SPF” value is on record as 0.67, the “fold of change GF/ABX” value turned out to be 1.23, the “fold of change GF/SPF” value is 0.83 and the “fold of change GF/Sp” value is 1.15. The “fold of change Sp/ABX” value came out at 1.07 and the “fold of change Sp/SPF” value is recorded as 0.72.

Turning to `O=C(O)C(O)C(O)C(O)CO` (stereo not drawn) [compound 995], the “fold of change ABX/SPF” value was 0.86, the “fold of change GF/ABX” value is reported as 1.04, the “fold of change GF/SPF” value is 0.89 and the “fold of change GF/Sp” value is recorded as 1.07. The “fold of change Sp/ABX” value came to 0.97 and the “fold of change Sp/SPF” value was 0.83.

For the compound `O=C(CO)[C@@H](O)[C@H](O)COP(=O)(O)O` [compound 997], the “fold of change ABX/SPF” value came to 0.72, the “fold of change GF/ABX” value turned out to be 0.94, the “fold of change GF/SPF” value was found to be 0.68 and the “fold of change GF/Sp” value came out at 0.91. The “fold of change Sp/ABX” value amounted to 1.03 and the “fold of change Sp/SPF” value came to 0.74.

For the compound `OCC(O)C(O)C(O)CO` (stereo not drawn) [compound 1018], the “fold of change ABX/SPF” value is given as 0.61, the “fold of change GF/ABX” value was 1.25, the “fold of change GF/SPF” value came out at 0.77 and the “fold of change GF/Sp” value is given as 0.88. In addition, the “fold of change Sp/ABX” value stood at 1.42 and the “fold of change Sp/SPF” value was 0.87.

Take `O=C(O)C(O)C(O)C(O)CO` (stereo not drawn) [compound 1020]: the “fold of change ABX/SPF” value is on record as 0.59, the “fold of change GF/ABX” value was 1.12, the “fold of change GF/SPF” value is reported as 0.66 and the “fold of change GF/Sp” value is 0.93. For the same compound, the “fold of change Sp/ABX” value is listed as 1.20 and the “fold of change Sp/SPF” value came to 0.71.

For `O=C(CO)C(O)C(O)C(O)C(O)CO` (stereo not drawn) [compound 1023], the “fold of change ABX/SPF” value stood at 0.66, the “fold of change GF/ABX” value turned out to be 1.12, the “fold of change GF/SPF” value is on record as 0.74 and the “fold of change GF/Sp” value is 0.93. For the same compound, the “fold of change Sp/ABX” value was 1.20 and the “fold of change Sp/SPF” value is recorded as 0.79.
